Results are given in words; binding and its absence hold for the method and conditions named. In cells and extracts the contact can be indirect. Some entries that bind do so weakly or less than the wild type. Sequences can lack the tags named with a protein.
How the values were obtained:
[1] = biological target: HA-Bcl2-L-13 (N-terminal hemagglutinin-tagged mouse Bcl2-like protein 13) (mouse) (UniProt P59017); assay: proximity ligation; HEK293A cells transfected with HA-Bcl2-L-13 or empty vector and FLAG-ULK1 or its mutants, fixed after 48 hr; anti-HA and anti-FLAG antibodies, Duolink; dots per cell, empty-vector values subtracted
[2] = biological target: HA-Bcl2-L-13 (N-terminal hemagglutinin-tagged mouse Bcl2-like protein 13) (mouse) (UniProt P59017); assay: co-IP; HEK293A cells transfected 48 h (for endogenous ULK1 and LC3B: pepstatin A and E64d 10 ug/ml each for 4 h before sampling); lysis buffer 50 mM Tris-HCl, 50 mM NaCl, 1 mM EDTA, 0.3% CHAPS, pH 7.4; anti-HA antibody with protein A magnetic beads, 4°C, 2 h; precipitates blotted for ULK1, LC3B or FLAG

Protein sequences, listed by entry. Tags and fused reporters are not part of them.
UniProt P59017: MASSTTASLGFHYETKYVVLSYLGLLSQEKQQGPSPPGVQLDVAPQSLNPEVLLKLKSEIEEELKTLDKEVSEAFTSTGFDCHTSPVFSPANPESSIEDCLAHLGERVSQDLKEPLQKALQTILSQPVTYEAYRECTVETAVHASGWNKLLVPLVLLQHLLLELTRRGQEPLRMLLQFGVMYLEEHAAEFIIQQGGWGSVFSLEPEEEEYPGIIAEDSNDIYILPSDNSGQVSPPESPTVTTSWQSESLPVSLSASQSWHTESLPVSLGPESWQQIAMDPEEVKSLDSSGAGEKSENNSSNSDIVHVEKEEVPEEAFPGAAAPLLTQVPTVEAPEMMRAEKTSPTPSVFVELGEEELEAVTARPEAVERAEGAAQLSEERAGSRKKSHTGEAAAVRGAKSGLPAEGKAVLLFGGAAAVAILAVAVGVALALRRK

binding [1]	binding [2]	Binder
binds	binds	FLAG-ULK1 wild type (mouse ULK1, p3xFLAG-CMV14-mULK1) (protein, UniProt O70405 1-1051) MEPGRGGVETVGKFEFSRKDLIGHGAFAVVFKGRHREKHDLEVAVKCINKKNLAKSQTLLGKEIKILKELKHENIVALYDFQEMANSVYLVMEYCNGGDLADYLHTMRTLSEDTVRLFLQQIAGAMRLLHSKGIIHRDLKPQNILLSNPGGRRANPSNIRVKIADFGFARYLQSNMMAATLCGSPMYMAPEVIMSQHYDGKADLWSIGTIVYQCLTGKAPFQASSPQDLRLFYEKNKTLVPAIPRETSAPLRQLLLALLQRNHKDRMDFDEFFHHPFLDASTPIKKSPPVPVPSYPSSGSGSSSSSSSASHLASPPSLGEMPQLQKTLTSPADAAGFLQGSRDSGGSSKDSCDTDDFVMVPAQFPGDLVAEAASAKPPPDSLLCSGSSLVASAGLESHGRTPSPSPTCSSSPSPSGRPGPFSSNRYGASVPIPVPTQVHNYQRIEQNLQSPTQQQTARSSAIRRSGSTTPLGFGRASPSPPSHTDGAMLARKLSLGGGRPYTPSPQVGTIPERPSWSRVPSPQGADVRVGRSPRPGSSVPEHSPRTTGLGCRLHSAPNLSDFHVVRPKLPKPPTDPLGATFSPPQTSAPQPCPGLQSCRPLRGSPKLPDFLQRSPLPPILGSPTKAGPSFDFPKTPSSQNLLTLLARQGVVMTPPRNRTLPDLSEASPFHGQQLGSGLRPAEDTRGPFGRSFSTSRITDLLLKAAFGTQASDSGSTDSLQEKPMEIAPSAGFGGTLHPGARGGGASSPAPVVFTVGSPPSGATPPQSTRTRMFSVGSSSSLGSTGSSSARHLVPGACGEAPELSAPGHCCSLADPLAANLEGAVTFEAPDLPEETLMEQEHTETLHSLRFTLAFAQQVLEIAALKGSASEAAGGPEYQLQESVVADQISQLSREWGFAEQLVLYLKVAELLSSGLQTAIDQIRAGKLCLSSTVKQVVRRLNELYKASVVSCQGLSLRLQRFFLDKQRLLDGIHGVTAERLILSHAVQMVQSAALDEMFQHREGCVPRYHKALLLLEGLQHTLTDQADIENIAKCKLCIERRLSALLSGVYA
binds	binds	FLAG-ULK1 K46N (kinase-dead mutant of mouse ULK1) (protein, UniProt O70405 1-1051) MEPGRGGVETVGKFEFSRKDLIGHGAFAVVFKGRHREKHDLEVAVNCINKKNLAKSQTLLGKEIKILKELKHENIVALYDFQEMANSVYLVMEYCNGGDLADYLHTMRTLSEDTVRLFLQQIAGAMRLLHSKGIIHRDLKPQNILLSNPGGRRANPSNIRVKIADFGFARYLQSNMMAATLCGSPMYMAPEVIMSQHYDGKADLWSIGTIVYQCLTGKAPFQASSPQDLRLFYEKNKTLVPAIPRETSAPLRQLLLALLQRNHKDRMDFDEFFHHPFLDASTPIKKSPPVPVPSYPSSGSGSSSSSSSASHLASPPSLGEMPQLQKTLTSPADAAGFLQGSRDSGGSSKDSCDTDDFVMVPAQFPGDLVAEAASAKPPPDSLLCSGSSLVASAGLESHGRTPSPSPTCSSSPSPSGRPGPFSSNRYGASVPIPVPTQVHNYQRIEQNLQSPTQQQTARSSAIRRSGSTTPLGFGRASPSPPSHTDGAMLARKLSLGGGRPYTPSPQVGTIPERPSWSRVPSPQGADVRVGRSPRPGSSVPEHSPRTTGLGCRLHSAPNLSDFHVVRPKLPKPPTDPLGATFSPPQTSAPQPCPGLQSCRPLRGSPKLPDFLQRSPLPPILGSPTKAGPSFDFPKTPSSQNLLTLLARQGVVMTPPRNRTLPDLSEASPFHGQQLGSGLRPAEDTRGPFGRSFSTSRITDLLLKAAFGTQASDSGSTDSLQEKPMEIAPSAGFGGTLHPGARGGGASSPAPVVFTVGSPPSGATPPQSTRTRMFSVGSSSSLGSTGSSSARHLVPGACGEAPELSAPGHCCSLADPLAANLEGAVTFEAPDLPEETLMEQEHTETLHSLRFTLAFAQQVLEIAALKGSASEAAGGPEYQLQESVVADQISQLSREWGFAEQLVLYLKVAELLSSGLQTAIDQIRAGKLCLSSTVKQVVRRLNELYKASVVSCQGLSLRLQRFFLDKQRLLDGIHGVTAERLILSHAVQMVQSAALDEMFQHREGCVPRYHKALLLLEGLQHTLTDQADIENIAKCKLCIERRLSALLSGVYA
binds	binds	FLAG-ULK1 F357A/V360A (LIR motif mutant of mouse ULK1) (protein, UniProt O70405 1-1051) MEPGRGGVETVGKFEFSRKDLIGHGAFAVVFKGRHREKHDLEVAVKCINKKNLAKSQTLLGKEIKILKELKHENIVALYDFQEMANSVYLVMEYCNGGDLADYLHTMRTLSEDTVRLFLQQIAGAMRLLHSKGIIHRDLKPQNILLSNPGGRRANPSNIRVKIADFGFARYLQSNMMAATLCGSPMYMAPEVIMSQHYDGKADLWSIGTIVYQCLTGKAPFQASSPQDLRLFYEKNKTLVPAIPRETSAPLRQLLLALLQRNHKDRMDFDEFFHHPFLDASTPIKKSPPVPVPSYPSSGSGSSSSSSSASHLASPPSLGEMPQLQKTLTSPADAAGFLQGSRDSGGSSKDSCDTDDAVMAPAQFPGDLVAEAASAKPPPDSLLCSGSSLVASAGLESHGRTPSPSPTCSSSPSPSGRPGPFSSNRYGASVPIPVPTQVHNYQRIEQNLQSPTQQQTARSSAIRRSGSTTPLGFGRASPSPPSHTDGAMLARKLSLGGGRPYTPSPQVGTIPERPSWSRVPSPQGADVRVGRSPRPGSSVPEHSPRTTGLGCRLHSAPNLSDFHVVRPKLPKPPTDPLGATFSPPQTSAPQPCPGLQSCRPLRGSPKLPDFLQRSPLPPILGSPTKAGPSFDFPKTPSSQNLLTLLARQGVVMTPPRNRTLPDLSEASPFHGQQLGSGLRPAEDTRGPFGRSFSTSRITDLLLKAAFGTQASDSGSTDSLQEKPMEIAPSAGFGGTLHPGARGGGASSPAPVVFTVGSPPSGATPPQSTRTRMFSVGSSSSLGSTGSSSARHLVPGACGEAPELSAPGHCCSLADPLAANLEGAVTFEAPDLPEETLMEQEHTETLHSLRFTLAFAQQVLEIAALKGSASEAAGGPEYQLQESVVADQISQLSREWGFAEQLVLYLKVAELLSSGLQTAIDQIRAGKLCLSSTVKQVVRRLNELYKASVVSCQGLSLRLQRFFLDKQRLLDGIHGVTAERLILSHAVQMVQSAALDEMFQHREGCVPRYHKALLLLEGLQHTLTDQADIENIAKCKLCIERRLSALLSGVYA

Source: publication PMC6326162
